According to patent US20170189504A1, “NOVEL PEPTIDES AND COMBINATION OF PEPTIDES FOR USE IN IMMUNOTHERAPY AGAINST VARIOUS CANCERS” (immatics biotechnologies GmbH, priority 2015, published 2017):

What was measured:
source genes (mRNA) [1] = assay: Gene and exon expression of source genes, TCGA tumor samples compared with normal tissue samples (Lonsdale, 2013) (Table 17); design: species or system human
source genes (mRNA) [2] = assay: Expression profiling of source genes by in-house RNASeq of tumor and normal tissues (Table 18, FIG. 2); design: species or system human; key: very highly over-expressed in tumors compared to a panel of normal tissues (+++); highly over-expressed in tumors compared to a panel of normal tissues (++); over-expressed in tumors compared to a panel of normal tissues (+); settings: source gene of peptide
HLA-A*24 = assay: Identification and relative LC-MS quantitation of HLA-A*24-presented tumor-associated peptides on tissue samples (presentation profiles, Tables 14A, 14B, 16, FIG. 1); design: species or system human; key to Presentation score GC / Presentation score NSCLC / Presentation score PCA / Presentation score GB / Presentation score HCC / Presentation score RCC: specifically presented on tumors (++++); very highly over-presented on tumors compared to a panel of normal tissues (+++); highly over-presented on tumors compared to a panel of normal tissues (++); over-presented on tumors compared to a panel of normal tissues (+)

Substance: 166: peptide found in NUP160 (gene looked up) (YYVESGKLF; listed as Homo sapiens) [compound 166]
- Over-expression category of source gene (target coverage), BLCA (source genes (mRNA) [1]; BLCA = Bladder urothelial carcinoma (N = 408), same cutoff): B (>= 20% of tumors above the cutoff, but <50%)
- Over-expression category of source gene (target coverage), BRCA (source genes (mRNA) [1]; BRCA = Breast cancer (N = 1104), tumors more than 2-fold above highest 75% percentile of normal tissues): B (>= 20% of tumors above the cutoff, but <50%)
- Over-expression category of source gene (target coverage), CHOL (source genes (mRNA) [1]; CHOL = Cholangiocarcinoma (N = 36), same cutoff): B (>= 20% of tumors above the cutoff, but <50%)
- Over-expression category of source gene (target coverage), COAD (source genes (mRNA) [1]; COAD = Colon and rectal adenocarcinoma (N = 462), same cutoff): A (>=50% of tumors above the cutoff)
- Over-expression category of source gene (target coverage), DLBC (source genes (mRNA) [1]; DLBC = Lymphoid neoplasm diffuse large B-cell lymphoma (N = 48), same cutoff): B (>= 20% of tumors above the cutoff, but <50%)
- Over-expression category of source gene (target coverage), ESCA (source genes (mRNA) [1]; ESCA = Esophageal cancer (N = 185), same cutoff): A (>=50% of tumors above the cutoff)
- Over-expression category of source gene (target coverage), GBM (source genes (mRNA) [1]; GBM = Glioblastoma multiforme (N = 169), same cutoff): B (>= 20% of tumors above the cutoff, but <50%)
- Over-expression category of source gene (target coverage), KICH (source genes (mRNA) [1]; KICH = Kidney chromophobe (N = 66), same cutoff): B (>= 20% of tumors above the cutoff, but <50%)
- Over-expression category of source gene (target coverage), KIRC (source genes (mRNA) [1]; KIRC = Clear cell kidney carcinoma (N = 534), same cutoff): B (>= 20% of tumors above the cutoff, but <50%)
- Over-expression category of source gene (target coverage), KIRP (source genes (mRNA) [1]; KIRP = Papillary kidney carcinoma (N = 291), same cutoff): B (>= 20% of tumors above the cutoff, but <50%)
- Over-expression category of source gene (target coverage), LAML (source genes (mRNA) [1]; LAML = Acute Myeloid Leukemia (N = 173), same cutoff): A (>=50% of tumors above the cutoff)
- Over-expression category of source gene (target coverage), LGG (source genes (mRNA) [1]; LGG = Lower grade glioma (N = 534), same cutoff): B (>= 20% of tumors above the cutoff, but <50%)
- Over-expression category of source gene (target coverage), LIHC (source genes (mRNA) [1]; LIHC = Liver hepatocellular carcinoma (N = 374), same cutoff): C (>=5% of tumors above the cutoff, but <20%)
- Over-expression category of source gene (target coverage), LUAD (source genes (mRNA) [1]; LUAD = Lung adenocarcinoma (N = 517), same cutoff): B (>= 20% of tumors above the cutoff, but <50%)
- Over-expression category of source gene (target coverage), LUSC (source genes (mRNA) [1]; LUSC = Lung squamous cell carcinoma (N = 503), same cutoff): A (>=50% of tumors above the cutoff)
- Over-expression category of source gene (target coverage), OV (source genes (mRNA) [1]; OV = Ovarian serous cystadenocarcinoma (N = 309), same cutoff): B (>= 20% of tumors above the cutoff, but <50%)
- Over-expression category of source gene (target coverage), PAAD (source genes (mRNA) [1]; PAAD = Pancreatic ductal adenocarcinoma (N = 179), same cutoff): B (>= 20% of tumors above the cutoff, but <50%)
- Over-expression category of source gene (target coverage), PRAD (source genes (mRNA) [1]; PRAD = Prostate adenocarcinoma (N = 498), same cutoff): B (>= 20% of tumors above the cutoff, but <50%)
- Over-expression category of source gene (target coverage), READ (source genes (mRNA) [1]; READ = Colon and rectal adenocarcinoma (N = 167), same cutoff): A (>=50% of tumors above the cutoff)
- Over-expression category of source gene (target coverage), SKCM (source genes (mRNA) [1]; SKCM = Skin cutaneous melanoma (N = 473), same cutoff): A (>=50% of tumors above the cutoff)
- Over-expression category of source gene (target coverage), STAD (source genes (mRNA) [1]; STAD = Stomach adenocarcinoma (N = 415), same cutoff): A (>=50% of tumors above the cutoff)
- Over-expression category of source gene (target coverage), UCEC (source genes (mRNA) [1]; UCEC = Uterine corpus endometrial carcinoma (N = 546), same cutoff): C (>=5% of tumors above the cutoff, but <20%)
- Expression score OSCAR (source genes (mRNA) [2]; esophageal cancer incl. gastric-esophageal junction (N = 11) vs panel of normal tissues): +
- Expression score GB (source genes (mRNA) [2]; glioblastoma (N = 24) vs panel of normal tissues): +
- Expression score NHL (source genes (mRNA) [2]; non-Hodgkin lymphoma (N = 10) vs panel of normal tissues): +
- Expression score NSCLC (source genes (mRNA) [2]; non-small cell lung cancer (N = 11) vs panel of normal tissues): +
- Expression score OC (source genes (mRNA) [2]; ovarian cancer (N = 12) vs panel of normal tissues): +
- Expression score SCLC (source genes (mRNA) [2]; small cell lung cancer (N = 10) vs panel of normal tissues): +
- Presentation score GB (HLA-A*24; HLA-A*24 peptides, glioblastoma (N = 18) vs panel of normal tissues (N = 70)): ++++
- Presentation score HCC (HLA-A*24; HLA-A*24 peptides, hepatocellular carcinoma (N = 15) vs panel of normal tissues (N = 70)): ++++
- Presentation score NSCLC (HLA-A*24; HLA-A*24 peptides, non-small cell lung cancer (N = 91) vs panel of normal tissues (N = 70)): ++++
- Peptide Presentation on cancer entities (HLA-A*24; Table 14A, HLA-A*24-binding tumor-associated peptides, cancer entities on which the peptide was found presented): GB, NSCLC, HCC

For some assays here: Expression grades refer to the transcript from which the peptide derives; gene names, where given, were looked up from the sequence.
